Literature values as cited in patent publication US10029033B2, “Encapsulated drug compositions and methods of use thereof” (COOK MEDICAL TECHNOLOGIES LLC, priority 2014, dated 2018).
Some of these results come from one statement about several compounds together. At least one structure is not confirmed: it was looked up by name or label, or the drawing left a doubt.

Conditions: solubility in water; 25° C. per definition of water-insoluble

Row | SMILES | water solubility
1 | CO[C@H]1C[C@@H]2CC[C@@H](C)[C@@](O)(O2)C(=O)C(=O)N2CCCC[C@H]2C(=O)O[C@H]([C@H](C)C[C@@H]2CC[C@@H](OCCO)[C@H](OC)C2)CC(=O)[C@H](C)/C=C(\C)[C@@H](O)[C@@H](OC)C(=O)[C@H](C)C[C@H](C)/C=C/C=C/C=C/1C [everolimus] | less than 10 micrograms/ml
2 | CO[C@@H]1C[C@H](C[C@@H](C)[C@@H]2CC(=O)[C@H](C)/C=C(\C)[C@@H](O)[C@@H](OC)C(=O)[C@H](C)C[C@H](C)/C=C/C=C/C=C(\C)[C@@H](O)C[C@@H]3CC[C@@H](C)[C@@](O)(O3)C(=O)C(=O)N3CCCC[C@H]3C(=O)O2)CC[C@H]1O [novolimus] | less than 10 micrograms/ml
3 | CC[C@@H]1/C=C(\C)C[C@H](C)C[C@H](OC)[C@H]2O[C@@](O)(C(=O)C(=O)N3CCCC[C@H]3C(=O)O[C@H](/C(C)=C/[C@@H]3CC[C@H](Cl)[C@H](OC)C3)[C@H](C)[C@@H](O)CC1=O)[C@H](C)C[C@@H]2OC [pimecrolimus] | less than 10 micrograms/ml
4 | CO[C@H]1C[C@@H]2CC[C@@H](C)[C@@](O)(O2)C(=O)C(=O)N2CCCC[C@H]2C(=O)O[C@H]([C@H](C)C[C@@H]2CC[C@@H](O)[C@H](OC)C2)CC(=O)[C@H](C)/C=C(\C)[C@@H](O)[C@@H](OC)C(=O)[C@H](C)C[C@H](C)/C=C/C=C/C=C/1C [sirolimus] | less than 10 micrograms/ml
5 | C=CC[C@@H]1/C=C(\C)C[C@H](C)C[C@H](OC)[C@H]2O[C@@](O)(C(=O)C(=O)N3CCCC[C@H]3C(=O)O[C@H](/C(C)=C/[C@@H]3CC[C@@H](O)[C@H](OC)C3)[C@H](C)[C@@H](O)CC1=O)[C@H](C)C[C@@H]2OC [tacrolimus] | less than 10 micrograms/ml
6 | CO[C@H]1C[C@@H]2CC[C@@H](C)[C@@](O)(O2)C(=O)C(=O)N2CCCC[C@H]2C(=O)O[C@H]([C@H](C)C[C@@H]2CC[C@@H](OC(=O)C(C)(CO)CO)[C@H](OC)C2)CC(=O)[C@H](C)/C=C(\C)[C@@H](O)[C@@H](OC)C(=O)[C@H](C)C[C@H](C)/C=C/C=C/C=C/1C [temsirolimus] | less than 10 micrograms/ml
7 | CO[C@H]1C[C@@H]2CC[C@@H](C)[C@@](O)(O2)C(=O)C(=O)N2CCCC[C@H]2C(=O)O[C@H]([C@H](C)C[C@@H]2CC[C@H](n3cnnn3)[C@H](OC)C2)CC(=O)[C@H](C)/C=C(\C)[C@@H](O)[C@@H](OC)C(=O)[C@H](C)C[C@H](C)/C=C/C=C/C=C/1C [zotarolimus] | less than 10 micrograms/ml
